Values of other authors as cited in patent US12616687B2, “Treatment of viral infection, disease or disorder using a selective sir agonist” (Prilenia Neurotherapeutics Ltd., priority 2020, dated 2026).

System: SARS-CoV-2
Conditions: viral titer assay; cited from earlier work

CN1CCC[C@@H]1CCO[C@](C)(c1ccccc1)c1ccc(Cl)cc1 [Clemastine]
concentration at which anti-viral activity was demonstrated: 10 µM
